Experimental findings from patent publication US20170095440A1, “METHOD OF TREATING CANINE PANCREATITIS” (CK9, LLC, priority 2014, published 2017) are described below.

Molecules are shown by their SMILES.

The data set relates to dogs with suspected chronic pancreatitis. Kind of data set: Serum cobalamin before and after treatment, clinical trial. In kind it is in vivo, dog.

Turning to `CN(C)C(=O)COC(=O)Cc1ccc(OC(=O)c2ccc(NC(=N)N)cc2)cc1` [Camostat Mesilate, N,N-dimethylcarbamoylmethyl-4-(4-guanidinobenzoyloxy)phenylacetate methanesulfonate], the “Serum cobalamin concentration post-treatment (mean)” value is, setting by setting: (4 mg/kg q 8 hrs, n=12, pre-treatment mean 868, post SD ±223, p=0.0363) 695 ng/L; (8 mg/kg q 8 hrs, n=17, pre-treatment mean 748, post SD ±263, p=0.0429) 629 ng/L. In addition, under “all treated dogs combined, n=29, pre-treatment median 843, post range 220-1001, p=0.0007”, the “Serum cobalamin concentration post-treatment (median)” value is 681 ng/L.
